Measurements published in PubChem BioAssay AID2685 (National Center for Advancing Translational Sciences (NCATS), 2010).
This is one part of the list. Further columns of the screen follow, without active or inactive calls. Most of these compounds were active or inconclusive in the main read-out, so they are no random draw. The note in brackets gives the kind of curve behind each potency; many fits are weak.

Assay: qHTS Assay for Lipid Storage Modulators in Drosophila S3 Cells;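 on cell number change: cells counted by Cell Tracker Red CMTPX staining in the red channel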
Conditions: BODIPY lipid droplet fluorescence, 18-24 h; for cell number change: measured here: cell count max response, cells fed with added oleic acid
Procedure, shortened: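 Laser-scanning cytometry quantifies lipid droplet accumulation (500–530 nm total intensity; droplet/cell object ratio) in oleic acid-fed (400 uM added) Drosophila S3 cells treated with a concentration series. 20 uM Triacsin C defined 100% inhibition.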

[1] = measured here: cell number channel AC50, cells fed with added oleic acid
[2] = measured here: lipid fluorescence (Fed channel) AC50, cells fed with added oleic acid

| Compound | cell number change [%] | AC50 [1] | AC50 [2] |
| --- | --- | --- | --- |
| COc1cc2c(c(O)c1OC)C(=O)C(OC)CCC2 (configuration not stated) | 9.76 |  |  |
| Cc1nc(CS(=O)c2ccc(Cl)cc2)cc(NCc2ccc(Cl)cc2Cl)n1 (configuration not stated) | -62.9 | 3.26 µM [rising, partial curve] |  |
| COc1ccccc1Nc1nc2c(C)cccc2cc1C#N | 16.7 |  | 20.6 µM [rising, single point] |
| CSCCC(NC(=O)c1ccc([N+](=O)[O-])cc1Cl)C(=O)OCC(=O)NC(=O)CN1CCCC1=O (configuration not stated) | -14.7 |  | 0.13 µM [falling, full curve, poor fit] |
| N#Cc1nc(Cc2ccccc2)oc1NCCc1ccccc1 | -25.9 |  | 7.31 µM [rising, partial curve] |
| Cc1ccc(-c2nn(-c3ccccc3)cc2/C=N/n2c(-c3cccs3)n[nH]c2=S)cc1 | -7.62 |  |  |
| CCC(C)[C@H](NC(=O)N1CCn2c1nc1ccccc12)C(=O)NCC1CCCO1 (some centres not stated) | -37.1 | 32.6 µM [falling, single point] |  |
| Cc1oncc1C(=O)Nc1ccc(C(F)(F)F)cc1 | 26.1 |  | 20.6 µM [rising, single point] |
| COc1ccc(NC(=O)c2ccc(NC(=O)c3cccs3)cc2)cc1 |  |  | 0.259 µM [rising, full curve, poor fit] |
| CCOC(=O)NCCc1ccc(OC)cc1 | -3.52 |  |  |
| O=C(Oc1c(-c2ccccc2Cl)oc2ccccc2c1=O)c1ccc(Cl)cc1 | 20.6 |  | 23.1 µM [rising, single point] |
| CCCOC(=O)c1cccc(NC(=O)c2cccnc2)c1 | 5.42 | 0.0326 µM [rising, full curve, poor fit] | 0.00461 µM [rising, full curve, poor fit] |
| O=C(COC(=O)c1ccc(O)cc1)Nc1cc(C(F)(F)F)ccc1N1CCOCC1 | -5.5 |  | 0.00517 µM [falling, full curve, poor fit] |
| COc1ccc(-c2nnn(CC(=O)OC3CCCCC3)n2)cc1OC | 2.37 |  | 0.00461 µM [falling, full curve, poor fit] |
| Cc1cc(NC(=O)c2ccc(F)cc2)ccc1NC(=O)c1ccco1 | -8.55 |  |  |
| Cc1nn(Cc2ccc(Cl)cc2Cl)c(Cl)c1/C=N/NC(=O)CNc1cccc(C(F)(F)F)c1 | -41.9 | 23.1 µM [falling, partial curve] | 14.6 µM [falling, partial curve] |
| CCCCN(C(=O)c1ccc2c(c1)OCO2)c1c(N)n(CCCC)c(=O)[nH]c1=O | -49.4 | 5.8 µM [falling, full curve] |  |
| COc1ccc(C(Cl)=C(c2ccc(OC)cc2)c2ccc(OC)cc2)cc1 | -15.9 |  | 18.4 µM [rising, single point] |
| CCc1ccccc1NC(=O)Cn1nc(C)n2cccc2c1=O |  |  | 6.51 µM [falling, single point] |
| Cc1oc(-c2cccc(Cl)c2)nc1CSCC(=O)O | -0.922 |  |  |
| Cc1ccc2cc(CN(Cc3cccs3)Cc3nnnn3CC3CCCO3)c(=O)[nH]c2c1 (configuration not stated) | 4.96 |  |  |

| Compound | cell number change [%] | AC50 [1] | AC50 [2] |
| --- | --- | --- | --- |
| Cc1ccc(C2=[N+]([O-])C(C)(C)N(O)C2(C)C)cc1 | 140 | 20.6 µM [rising, partial curve, poor fit] | 29.1 µM [rising, partial curve] |
| COCCOC(=O)c1[nH]c2c(c1C)C(=O)CC(c1cc(OC)c(OC)c(OC)c1)C2 (configuration not stated) | -27.7 |  |  |
| O=C(Nc1nc(-c2ccc(Cl)s2)cs1)c1ccco1 | 36.9 |  |  |
| Cc1cccc(Cn2c(NCC(C)O)nc3c2c(=O)n(C)c(=O)n3C)c1 (configuration not stated) |  |  | 0.146 µM [falling, full curve] |
| c1ccc(C2CC(c3ccccc3)n3ncnc3N2)cc1 (configuration not stated) | -18.8 |  | 6.51 µM [rising, single point] |
| CC1(C)CC(=O)C(C=NCCN2CCN(CC(=O)Nc3ccc(F)cc3)CC2)=C(O)C1 | 6.55 |  |  |
| CC(C)(C)C(=O)OCCNc1nc(-c2ccccc2)nc2ccccc12 | 21.7 |  | 1.64 µM [rising, partial curve] |
| COc1ccc2c(-c3ccccc3)cc(SCC(=O)N(C)C3CCS(=O)(=O)C3)nc2c1 (configuration not stated) |  |  | 0.0651 µM [rising, full curve, poor fit] |
| CC(C)C[C@H](NC(=O)NCCc1ccc(Cl)cc1)C(=O)O | 4.65 |  |  |
| CCN(C(=O)/C=C/c1ccc(OC)cc1)C1CCCCC1 | 15.9 |  |  |
| Fc1cccc2sc(Nc3nc4ccccc4s3)nc12 | -44.1 | 0.231 µM [rising, full curve, poor fit] |  |
| COc1ccc(CCNC(=O)CNC(=O)Cn2ccc3ccccc3c2=O)cc1OC | -32.2 | 0.0058 µM [falling, full curve, poor fit] | 23.1 µM [falling, partial curve, poor fit] |
| COc1ccccc1NS(=O)(=O)c1cc(NC(=O)C2CC2)ccc1N1CCOCC1 | -3.87 |  |  |
| COc1ccc(C(=O)CCN2CCC(C)CC2)cc1 | -48.9 | 0.0326 µM [falling, full curve, poor fit] | 6.51 µM [falling, partial curve] |
| CCOC(=O)c1cccc(NC(=O)CCc2nc(-c3ccc(C)cc3)no2)c1 | -35.7 | 14.6 µM [falling, single point] | 29.1 µM [falling, single point] |
| O=C(NCc1cccnc1)C1CC(c2ccc(Cl)c(Cl)c2)=NO1 (configuration not stated) | 39.5 |  |  |
| COc1cc(C(C(=O)NC2CCCC2)N(C(=O)Cc2cccs2)C2CC2)cc(OC)c1OC (configuration not stated) |  |  | 0.116 µM [falling, full curve, poor fit] |
| COc1ccc(C(=O)Nc2ccnn2C2CCN(Cc3cnn(C)c3)CC2)cc1 |  |  | 0.517 µM [rising, partial curve, poor fit] |
| N#C/C(=C\c1cccnc1)C(=O)Nc1ccc(SC(F)F)cc1 | 23.2 |  | 9.2 µM [rising, partial curve] |
| COc1ccc(NC(=O)C(=S)NC2CCCCC2)cc1 | 91.7 | 16.4 µM [rising, single point] | 0.411 µM [rising, single point] |
| O=C(COc1ccccc1Br)N1CCN(C(=O)c2cccs2)CC1 | 16.3 | 1.46 µM [falling, partial curve] |  |

| Compound | cell number change [%] | AC50 [1] | AC50 [2] |
| --- | --- | --- | --- |
| C/C=C(/C)C(=O)Nc1cccc(C2=NOC3(C2)C[C@H](C(N)=O)N(C(=O)Cc2ccc([N+](=O)[O-])cc2)C3)c1 (some centres not stated) | 15.5 | 5.17 µM [falling, single point] | 2.91 µM [falling, single point] |
| CCc1ccc(OCC(=O)Nc2ncc3c(n2)CC(C)(C)CC3=O)cc1 | 15.3 |  | 2.06 µM [rising, partial curve] |
| c1ccc(Cc2ccc(OCCN3CCOCC3)cc2)cc1 | -9.52 |  |  |
| COc1cccc(CN(C)Cc2nc(Cc3ccccc3Cl)no2)c1 | 15.4 |  | 1.03 µM [rising, partial curve] |
| Cc1cccc(NC(=O)Cn2nc(-c3cccs3)ccc2=O)c1C | 26.9 | 0.517 µM [rising, full curve, poor fit] | 29.1 µM [falling, single point] |
| O=C(c1cnn2c(C(F)(F)F)cc(-c3ccco3)nc12)N1CCc2ccccc2C1 |  | 0.92 µM [rising, partial curve] | 1.03 µM [rising, partial curve] |
| CCOC(=O)C1=C(C)Nc2nc3ccccc3n2C1c1ccc(O)cc1 (configuration not stated) | 12.6 | 0.461 µM [rising, full curve, poor fit] | 0.259 µM [rising, full curve, poor fit] |
| O=C(Nc1nc(=O)n(C(=O)C2CC2)s1)c1ccccc1 | 38.7 | 23.1 µM [rising, single point] |  |
| C/C(=N/Nc1nc(C)c(C)s1)c1cccc([N+](=O)[O-])c1 | -20.4 |  | 14.6 µM [falling, single point] |
| CCOc1ccc(NC(=O)C2CCN(C(=O)NCc3ccccc3)CC2)cc1 | -10.1 | 0.00517 µM [falling, full curve, poor fit] |  |
| CC(C)CC(=O)N1CCN(Cc2cccc(Cl)c2)CC1 | -17.3 |  | 0.58 µM [falling, single point] |
| CCCCCCNC(=O)Nc1ccccc1 |  | 6.51 µM [falling, single point] | 14.6 µM [falling, partial curve, poor fit] |
| Cc1ccc(C(C)(C)C)cc1S(=O)(=O)N1CC(=O)Nc2ccccc21 |  |  | 6.51 µM [falling, single point] |
| CC(C)(C)n1cnnc1Sc1ccc([N+](=O)[O-])cn1 | -29.9 |  | 0.651 µM [falling, full curve, poor fit] |
| CNc1cc(C)nc(-n2nc(C)cc2C)n1 | -0.4 |  | 0.00731 µM [falling, full curve, poor fit] |
| CCC(C)[C@@H](C(=O)NCC1CCC(C(=O)O)CC1)n1nnc2ccccc2c1=O (some centres not stated) | 2.7 |  | 29.1 µM [rising, single point] |
| Cc1cc(NC(=O)c2cc3n(n2)C(C(F)(F)F)CC(c2ccco2)N3)no1 (configuration not stated) |  | 3.66 µM [rising, partial curve] | 2.59 µM [rising, partial curve] |
| CC(=O)c1sc(NC(=O)C2=NN(c3ccccc3)C(=O)CC2)nc1C | -34.7 |  |  |
| Cc1nc2ccc(Cl)cc2nc(C)/c1=N\O | 6.38 |  |  |
| CCOC(=O)/C(=N\Nc1ccccc1Cl)N(C)C1CCCCC1 | -1.59 |  |  |
| CCOC(=O)c1ccc(NC(=O)c2cnccn2)cc1 | 12.9 |  | 4.61 µM [rising, full curve, poor fit] |

Single records, from the list above:
CC(C)C[C@H](NC(=O)NCCc1ccc(Cl)cc1)C(=O)O is entered as cell number change [%]: 4.65
O=C(Nc1nc(=O)n(C(=O)C2CC2)s1)c1ccccc1 is entered as cell number change [%]: 38.7; AC50 [1]: 23.1 µM [rising, single point]
COc1ccc(NC(=O)c2ccc(NC(=O)c3cccs3)cc2)cc1 is entered as AC50 [2]: 0.259 µM [rising, full curve, poor fit]
